Test results as given in article PMC1561584.
Results are given in words; binding and its absence hold for the method and conditions named.

Molecular target: LexA-UNC-69 (C. elegans)
Assay: two-hybrid; LexA baits and GAD preys in strain L40; ONPG liquid β-galactosidase assays and auxotrophic (-His) growth assays

Row | binding | Binder
1 | no binding | ARL-1(Q70L) (protein, UniProt Q20758 1-180) MGGVMSYFRGLFGAREMRILILGLDGAGKTTILYRLQVGEVVTTIPTIGFNVEQVEYKNLKFQVWDLGGLTSIRPYWRCYYANTDAIIYVVDSADRDRVGISRQELATMLQEDELQGAVLAVLANKQDIAGCLTETEVYKALGLDALRNRTIQIFKTSASKGEGLDPAMDWLANQLQQKK
2 | no binding | GAD-ARL-1 (protein, UniProt Q20758 1-180) MGGVMSYFRGLFGAREMRILILGLDGAGKTTILYRLQVGEVVTTIPTIGFNVEQVEYKNLKFQVWDLGGQTSIRPYWRCYYANTDAIIYVVDSADRDRVGISRQELATMLQEDELQGAVLAVLANKQDIAGCLTETEVYKALGLDALRNRTIQIFKTSASKGEGLDPAMDWLANQLQQKK
3 | no binding | GAD-ARL-3 (full length) (protein, UniProt O45379 1-184) MGLIDVLKSFKSPSGREIRILLLGLDNAGKTTILKQLSSEDVQHVTPTKGFNVKTVAAMGDIRLNVWDIGGQRSIRPYWSNYYENIDTLIFVIDSNDKKRFDEMNIELGELLDEEKLRKVPVLIFANKQDLVTAASSEEITRKLNLDLLRDRTWHIQACSALKNEGINDGITWVASNLKPASKK
